Reference: BigSolDB 2.1

CN(C)C(=N)N=C(N)N.Cl
solubility (mole fraction)
Settings	283.15 K	288.15 K	293.15 K	298.15 K	303.15 K	308.15 K	313.15 K	318.15 K	323.15 K
in ethanol	0.0013	0.00147	0.0016	0.00183	0.00212	0.00225	0.00245	0.00275	0.00343
in methanol	0.00898	0.01	0.0114	0.0127	0.0141	0.0157	0.0175	0.0229	0.0226
in water	0.0292	0.0338	0.0378	0.0419	0.0473	0.0514	0.0574	0.0626	0.0683
